According to the M2OR odorant receptor database:
This is a selection; strong and weak results do not stand in their true shares. Calls are pooled over several reports, among them a noisy single-well screen. The list shows a part of the results.

By UniProt entry, the sequences of proteins in these tests, tags left out. Where a name states a change or a piece, a line headed by the entry shows the natural chain unless it says otherwise.
UniProt Q8NGP4: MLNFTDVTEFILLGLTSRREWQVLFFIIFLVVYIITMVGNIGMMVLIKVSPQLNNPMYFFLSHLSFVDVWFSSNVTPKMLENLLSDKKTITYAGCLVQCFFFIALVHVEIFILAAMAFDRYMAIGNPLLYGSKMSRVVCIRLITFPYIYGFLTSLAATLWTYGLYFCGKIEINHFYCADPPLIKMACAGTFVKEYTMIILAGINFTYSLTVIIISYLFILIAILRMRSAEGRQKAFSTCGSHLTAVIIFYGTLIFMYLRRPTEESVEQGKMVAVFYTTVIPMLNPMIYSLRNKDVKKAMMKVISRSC

Key:
Details in all cases: stereoisomer not certain
OR5M1 = tested on: T1, OR5M1
T1 sequence (whole entry): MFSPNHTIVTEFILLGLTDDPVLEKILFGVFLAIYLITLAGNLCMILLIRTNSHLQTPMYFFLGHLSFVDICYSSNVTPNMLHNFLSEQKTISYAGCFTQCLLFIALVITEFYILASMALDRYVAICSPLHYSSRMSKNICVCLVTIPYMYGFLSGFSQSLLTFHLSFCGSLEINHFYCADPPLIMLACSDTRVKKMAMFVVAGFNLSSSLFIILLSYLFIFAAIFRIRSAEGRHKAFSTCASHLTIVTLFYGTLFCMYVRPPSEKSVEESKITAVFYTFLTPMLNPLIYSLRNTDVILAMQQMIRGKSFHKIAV
In short: (§1)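 Assay methods differ from source to source, frequently being transient luciferase assays in mammalian cell lines. For each receptor–molecule pair, the label responsive (active) applies when the original authors judged the measured signal statistically different from baseline, and non-responsive (inactive) applies otherwise.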

OR5M3 (Homo sapiens) = OR5M3 (Homo sapiens) (UniProt Q8NGP4)
In short: as §1

OR5M8 (Homo sapiens) = target: T2, OR5M8 (Homo sapiens) (UniProt Q8NGP6)
T2 sequence (whole entry): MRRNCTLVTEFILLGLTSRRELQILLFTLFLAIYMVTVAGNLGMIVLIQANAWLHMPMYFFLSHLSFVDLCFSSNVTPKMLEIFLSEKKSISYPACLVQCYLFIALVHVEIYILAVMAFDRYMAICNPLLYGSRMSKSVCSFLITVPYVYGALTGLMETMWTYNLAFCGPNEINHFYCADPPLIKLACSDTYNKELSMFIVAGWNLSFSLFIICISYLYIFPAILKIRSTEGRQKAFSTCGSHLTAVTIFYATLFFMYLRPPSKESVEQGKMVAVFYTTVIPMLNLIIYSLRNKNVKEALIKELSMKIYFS
In short: as §1

OR5M9 (Homo sapiens) = target: T3, OR5M9 (Homo sapiens) (UniProt Q8NGP3)
T3 sequence (whole entry): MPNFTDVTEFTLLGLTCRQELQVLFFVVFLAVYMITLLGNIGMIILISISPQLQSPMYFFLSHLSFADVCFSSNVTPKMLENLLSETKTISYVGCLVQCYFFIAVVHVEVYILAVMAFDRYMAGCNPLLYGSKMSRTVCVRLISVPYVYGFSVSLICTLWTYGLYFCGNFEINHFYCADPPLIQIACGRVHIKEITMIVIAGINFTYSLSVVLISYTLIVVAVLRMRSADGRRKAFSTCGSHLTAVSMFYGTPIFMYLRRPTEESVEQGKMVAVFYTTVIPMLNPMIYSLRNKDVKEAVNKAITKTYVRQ
In short: as §1

OR5MA = tested on: T4, OR5MA
T4 sequence (whole entry): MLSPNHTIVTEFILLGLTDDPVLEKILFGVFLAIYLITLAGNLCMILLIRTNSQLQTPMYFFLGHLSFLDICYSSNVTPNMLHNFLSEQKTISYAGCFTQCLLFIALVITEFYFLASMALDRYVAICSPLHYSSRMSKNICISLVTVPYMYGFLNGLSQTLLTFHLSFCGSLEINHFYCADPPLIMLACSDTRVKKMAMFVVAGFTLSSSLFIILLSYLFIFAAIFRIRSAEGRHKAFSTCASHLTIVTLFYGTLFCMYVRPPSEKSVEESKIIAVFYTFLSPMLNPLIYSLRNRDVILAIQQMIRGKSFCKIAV
In short: as §1

OR5P2 (Homo sapiens) = target: T5, OR5P2 (Homo sapiens) (UniProt Q8WZ92)
T5 sequence (whole entry): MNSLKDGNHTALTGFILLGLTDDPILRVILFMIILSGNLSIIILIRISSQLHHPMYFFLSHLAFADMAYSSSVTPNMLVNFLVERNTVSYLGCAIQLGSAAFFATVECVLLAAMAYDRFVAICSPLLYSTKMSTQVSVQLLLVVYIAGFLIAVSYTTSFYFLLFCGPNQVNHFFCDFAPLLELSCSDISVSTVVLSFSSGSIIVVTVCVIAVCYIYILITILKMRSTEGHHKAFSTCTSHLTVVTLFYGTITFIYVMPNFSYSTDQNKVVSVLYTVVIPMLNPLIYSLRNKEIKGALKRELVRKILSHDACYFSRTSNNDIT
In short: as §1

OR5P3 (Homo sapiens) = target: T6, OR5P3 (Homo sapiens) (UniProt Q8WZ94)
T6 sequence (whole entry): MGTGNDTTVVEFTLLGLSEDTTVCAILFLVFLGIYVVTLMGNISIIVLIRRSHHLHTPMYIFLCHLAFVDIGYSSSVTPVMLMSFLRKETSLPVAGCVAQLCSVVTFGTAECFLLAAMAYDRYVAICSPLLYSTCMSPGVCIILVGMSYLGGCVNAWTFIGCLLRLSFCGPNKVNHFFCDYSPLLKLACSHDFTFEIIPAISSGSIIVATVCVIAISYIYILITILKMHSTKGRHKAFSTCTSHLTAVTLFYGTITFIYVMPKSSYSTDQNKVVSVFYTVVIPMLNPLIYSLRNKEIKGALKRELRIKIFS
In short: as §1

OR5R1 = tested on: T7, OR5R1
T7 sequence (whole entry): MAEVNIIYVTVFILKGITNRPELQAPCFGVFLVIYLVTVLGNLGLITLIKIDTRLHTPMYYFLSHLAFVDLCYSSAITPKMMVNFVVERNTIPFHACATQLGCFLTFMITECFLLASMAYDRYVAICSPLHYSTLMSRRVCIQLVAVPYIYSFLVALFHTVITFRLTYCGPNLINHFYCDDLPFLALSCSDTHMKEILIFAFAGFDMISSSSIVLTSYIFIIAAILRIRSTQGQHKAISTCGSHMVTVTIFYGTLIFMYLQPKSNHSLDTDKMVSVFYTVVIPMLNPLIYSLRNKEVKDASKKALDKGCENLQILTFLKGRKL
In short: as §1

OR5T1 (Homo sapiens) = target: T8, OR5T1 (Homo sapiens) (UniProt Q8NG75)
T8 sequence (whole entry): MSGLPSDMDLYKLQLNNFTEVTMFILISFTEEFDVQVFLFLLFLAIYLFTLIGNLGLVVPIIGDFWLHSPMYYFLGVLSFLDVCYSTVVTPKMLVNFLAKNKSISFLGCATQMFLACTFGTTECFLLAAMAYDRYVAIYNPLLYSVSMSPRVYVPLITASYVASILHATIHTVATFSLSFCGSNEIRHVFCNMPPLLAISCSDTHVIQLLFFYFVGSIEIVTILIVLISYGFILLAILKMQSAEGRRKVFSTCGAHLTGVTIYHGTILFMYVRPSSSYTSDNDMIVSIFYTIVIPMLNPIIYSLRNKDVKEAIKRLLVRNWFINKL
In short: as §1

OR5T1 = tested on: T9, OR5T1
T9 sequence (whole entry): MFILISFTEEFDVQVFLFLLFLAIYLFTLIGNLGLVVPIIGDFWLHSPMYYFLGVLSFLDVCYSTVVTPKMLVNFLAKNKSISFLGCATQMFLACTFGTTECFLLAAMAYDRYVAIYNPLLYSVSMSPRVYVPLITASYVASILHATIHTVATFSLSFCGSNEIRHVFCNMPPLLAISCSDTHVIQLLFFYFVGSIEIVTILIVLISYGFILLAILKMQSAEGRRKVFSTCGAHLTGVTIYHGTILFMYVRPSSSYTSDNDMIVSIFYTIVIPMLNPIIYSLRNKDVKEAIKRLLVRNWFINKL
In short: as §1

OR5T2 [1] = tested on: T10, OR5T2
T10 sequence (whole entry): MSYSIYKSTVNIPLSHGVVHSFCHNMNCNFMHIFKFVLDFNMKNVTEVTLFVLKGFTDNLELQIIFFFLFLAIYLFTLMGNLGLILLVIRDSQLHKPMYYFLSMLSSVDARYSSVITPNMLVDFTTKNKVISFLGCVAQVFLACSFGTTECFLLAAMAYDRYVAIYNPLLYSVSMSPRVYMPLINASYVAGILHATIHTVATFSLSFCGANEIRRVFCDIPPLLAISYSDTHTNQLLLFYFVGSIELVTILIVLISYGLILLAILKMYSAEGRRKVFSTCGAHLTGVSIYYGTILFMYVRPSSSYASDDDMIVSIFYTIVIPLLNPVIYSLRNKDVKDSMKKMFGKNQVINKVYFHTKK
In short: as §1

OR5T2 [2] = tested on: T11, OR5T2; remark: listed apart in the source
T11 sequence (whole entry): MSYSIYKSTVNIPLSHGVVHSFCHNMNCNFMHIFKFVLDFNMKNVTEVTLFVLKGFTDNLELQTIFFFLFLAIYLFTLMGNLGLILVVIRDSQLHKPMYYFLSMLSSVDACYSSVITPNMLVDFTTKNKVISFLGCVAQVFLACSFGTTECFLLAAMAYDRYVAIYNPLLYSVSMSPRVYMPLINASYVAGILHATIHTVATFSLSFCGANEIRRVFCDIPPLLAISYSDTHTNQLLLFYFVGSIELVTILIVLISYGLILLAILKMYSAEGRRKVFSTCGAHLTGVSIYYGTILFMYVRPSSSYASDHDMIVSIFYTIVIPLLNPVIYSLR
In short: as §1

OR5T3 = tested on: T12, OR5T3
T12 sequence (whole entry): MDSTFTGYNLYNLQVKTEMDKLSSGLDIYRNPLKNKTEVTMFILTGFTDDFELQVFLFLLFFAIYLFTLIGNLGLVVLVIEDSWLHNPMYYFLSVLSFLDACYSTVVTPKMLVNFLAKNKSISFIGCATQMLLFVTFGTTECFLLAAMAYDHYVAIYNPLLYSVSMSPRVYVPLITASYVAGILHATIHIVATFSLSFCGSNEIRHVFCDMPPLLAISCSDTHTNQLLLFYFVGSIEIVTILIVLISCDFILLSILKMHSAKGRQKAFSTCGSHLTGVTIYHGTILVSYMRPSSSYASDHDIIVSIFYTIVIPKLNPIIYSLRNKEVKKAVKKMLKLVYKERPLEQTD
In short: as §1

OR5V1 (Homo sapiens) = target: T13, OR5V1 (Homo sapiens) (UniProt Q9UGF6)
T13 sequence (whole entry): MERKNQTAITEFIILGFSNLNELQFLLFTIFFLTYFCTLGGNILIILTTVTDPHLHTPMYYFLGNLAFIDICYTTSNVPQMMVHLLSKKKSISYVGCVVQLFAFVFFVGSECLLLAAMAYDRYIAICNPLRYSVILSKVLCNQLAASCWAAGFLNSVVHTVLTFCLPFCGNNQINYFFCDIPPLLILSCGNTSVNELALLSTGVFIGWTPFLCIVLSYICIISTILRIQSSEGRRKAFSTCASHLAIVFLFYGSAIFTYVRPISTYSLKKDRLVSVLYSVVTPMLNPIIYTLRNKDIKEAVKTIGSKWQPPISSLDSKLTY
In short: as §1

OR5W2 = tested on: T14, OR5W2
T14 sequence (whole entry): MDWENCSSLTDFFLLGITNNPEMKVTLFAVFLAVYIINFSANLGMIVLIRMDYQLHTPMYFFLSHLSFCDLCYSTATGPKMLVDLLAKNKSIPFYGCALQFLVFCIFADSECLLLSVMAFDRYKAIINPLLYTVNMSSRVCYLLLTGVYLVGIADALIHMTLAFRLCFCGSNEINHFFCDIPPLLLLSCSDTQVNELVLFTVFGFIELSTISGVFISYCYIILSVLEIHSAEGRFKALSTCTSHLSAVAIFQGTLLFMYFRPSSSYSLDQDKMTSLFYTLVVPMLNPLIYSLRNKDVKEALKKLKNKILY
In short: as §1

OR6A2 (Homo sapiens) = target: T15, OR6A2 (Homo sapiens) (UniProt O95222)
T15 sequence (whole entry): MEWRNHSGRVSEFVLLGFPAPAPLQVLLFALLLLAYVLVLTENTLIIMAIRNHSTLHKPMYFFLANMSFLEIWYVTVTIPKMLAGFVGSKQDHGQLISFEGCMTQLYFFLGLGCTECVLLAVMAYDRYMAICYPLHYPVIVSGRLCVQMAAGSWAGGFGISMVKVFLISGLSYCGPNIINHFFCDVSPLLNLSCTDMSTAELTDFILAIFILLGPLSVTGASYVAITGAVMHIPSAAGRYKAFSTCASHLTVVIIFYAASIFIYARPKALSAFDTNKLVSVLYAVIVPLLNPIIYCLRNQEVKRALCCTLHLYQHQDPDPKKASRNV
In short: as §1

OR6B1 = tested on: T16, OR6B1
T16 sequence (whole entry): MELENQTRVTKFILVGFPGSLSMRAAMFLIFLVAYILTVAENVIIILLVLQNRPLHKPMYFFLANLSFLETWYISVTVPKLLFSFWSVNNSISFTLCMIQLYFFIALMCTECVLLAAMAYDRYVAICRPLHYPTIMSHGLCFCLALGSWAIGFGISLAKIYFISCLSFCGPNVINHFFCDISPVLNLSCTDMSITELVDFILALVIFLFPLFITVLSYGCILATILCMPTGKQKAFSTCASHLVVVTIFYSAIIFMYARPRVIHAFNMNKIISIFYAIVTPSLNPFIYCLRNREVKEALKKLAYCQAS
In short: as §1

OR6B2 = tested on: T17, OR6B2
T17 sequence (whole entry): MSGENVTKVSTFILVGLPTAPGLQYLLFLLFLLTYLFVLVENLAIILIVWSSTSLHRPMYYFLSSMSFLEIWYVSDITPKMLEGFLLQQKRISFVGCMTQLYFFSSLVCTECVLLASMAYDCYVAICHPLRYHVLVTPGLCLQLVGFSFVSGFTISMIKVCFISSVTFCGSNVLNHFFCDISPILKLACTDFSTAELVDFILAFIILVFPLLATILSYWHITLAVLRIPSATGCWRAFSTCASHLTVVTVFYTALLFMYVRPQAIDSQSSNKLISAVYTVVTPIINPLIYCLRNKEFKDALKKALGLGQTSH
In short: as §1

OR6B3 = tested on: T18, OR6B3
T18 sequence (whole entry): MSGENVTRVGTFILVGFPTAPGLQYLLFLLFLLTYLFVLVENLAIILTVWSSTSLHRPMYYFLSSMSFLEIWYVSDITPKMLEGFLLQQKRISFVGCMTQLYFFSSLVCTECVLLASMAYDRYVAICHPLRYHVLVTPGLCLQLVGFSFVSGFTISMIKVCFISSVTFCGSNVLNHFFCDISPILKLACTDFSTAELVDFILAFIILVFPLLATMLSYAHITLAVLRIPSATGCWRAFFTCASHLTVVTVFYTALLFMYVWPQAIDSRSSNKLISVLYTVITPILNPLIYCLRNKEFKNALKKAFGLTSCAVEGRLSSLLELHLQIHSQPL
In short: as §1

OR6C1 = tested on: T19, OR6C1
T19 sequence (whole entry): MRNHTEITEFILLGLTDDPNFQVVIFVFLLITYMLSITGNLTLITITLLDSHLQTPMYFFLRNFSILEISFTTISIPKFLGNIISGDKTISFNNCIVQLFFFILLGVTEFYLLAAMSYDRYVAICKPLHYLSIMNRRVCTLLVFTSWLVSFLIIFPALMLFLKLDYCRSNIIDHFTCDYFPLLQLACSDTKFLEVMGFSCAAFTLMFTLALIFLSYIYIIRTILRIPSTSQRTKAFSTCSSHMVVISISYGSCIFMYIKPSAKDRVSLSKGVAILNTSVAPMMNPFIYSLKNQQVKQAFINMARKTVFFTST
In short: as §1

Measured: odorant receptor agonist call

CCCCOC(C)=O
inactive: all assays above
